In patent US7572938B2, “Precursors for ketones and aldehydes” (Givaudan SA, priority 2001, dated 2009):

Experiment: Photorelease assays on fabric: spray tests, evaluation by a trained panel of perfumers
Design: key: 0: very weak; +: weak; ++: medium; +++: strong
Settings: Terry towel sprayed with 0.2% solution in ethanol; for Fragrance Target (perception) Aldehyde/Ketone (III) nat. light / Global appreciation nat. light / Fragrance Target (perception) Aryl ketone (II) nat. light: natural winter sun light behind glass window; for Fragrance Target (perception) Aldehyde/Ketone (III) art. light / Global appreciation art. light / Fragrance Target (perception) Aryl ketone (II) art. light: tanning lamp 300 W, 50 cm

Row | Compound | Fragrance Target (perception) Aldehyde/Ketone (III) nat. light | Global appreciation nat. light | Fragrance Target (perception) Aldehyde/Ketone (III) art. light | Global appreciation art. light | Fragrance Target (perception) Aryl ketone (II) nat. light | Fragrance Target (perception) Aryl ketone (II) art. light
1 | CCCOc1ccc(C(=O)C(OCC(C)CCCC(C)CCC=C(C)C)OCC(C)CCCC(C)CCC=C(C)C)cc1 (stereo not drawn) [compound 12] | + | + | ++ | ++ |  | 
2 | CCCOc1ccc(C(=O)C(OC2C[C@@H](C)CC[C@@H]2C(C)C)OC2C[C@@H](C)CC[C@@H]2C(C)C)cc1 (stereo partly drawn) [compound 13, 2,2-Bis-(2-isopropyl-5-methyl-cyclohexyloxy)-1-(4-propoxy-phenyl)-ethanone] | + | + | ++ | ++ |  | 
3 | CCCOc1ccc(C(=O)C(OC(C)CCC2=C(C)CCCC2(C)C)OC(C)CCC2=C(C)CCCC2(C)C)cc1 (stereo not drawn) [compound 14, 2,2-Bis-[1-methyl-3-(2,6,6-trimethyl-cyclohex-1-enyl)-propoxy]-1-(4-propoxy-phenyl)-ethanone] | 0 | 0 | ++ | ++ |  | 
4 | COCCOc1ccc(C(=O)C(OCC(C)Cc2ccc(C(C)(C)C)cc2)OCC(C)Cc2ccc(C(C)(C)C)cc2)cc1 (stereo not drawn) [compound 15] | ++ | ++ | +++ | +++ |  | 
5 | CCCCCCCCCC(C)COC(OCC(C)CCCCCCCCC)C(=O)c1ccc(OCCOC)cc1 (stereo not drawn) [compound 16] | +++ | +++ | +++ | +++ |  | 
6 | COCCOc1ccc(C(=O)C(OCC2CCC(C)=CC2C)OCC2CCC(C)=CC2C)cc1 (stereo not drawn) [compound 17] | + | + | +++ | +++ |  | 
7 | COCCOc1ccc(C(=O)C(OCC(C)CCCC(C)CCC=C(C)C)OCC(C)CCCC(C)CCC=C(C)C)cc1 (stereo not drawn) [compound 18] | + | + | ++ | ++ |  | 
8 | CCCCCCCCCCOc1ccc(C(=O)C(OCCC(C)CCC=C(C)C)OCCC(C)CCC=C(C)C)cc1 (stereo not drawn) [compound 19] | ++ | ++ | +++ | +++ |  | 
9 | C=CCCCCCCCCCOC(OCCCCCCCCCC=C)C(=O)c1ccc(OCCCCCCCCCC)cc1 [compound 20] | ++ | ++ | +++ | +++ |  | 
10 | CCCCCCCCCCCCCCCCCCOc1ccc(C(=O)C(OCC(C)Cc2ccc(C(C)(C)C)cc2)OCC(C)Cc2ccc(C(C)(C)C)cc2)cc1 (stereo not drawn) [compound 21] | ++ | ++ | +++ | +++ |  | 
11 | CCCCCCCCCCCCCCCCCCOc1ccc(C(=O)C(OCCC(C)CCC=C(C)C)OCCC(C)CCC=C(C)C)cc1 (stereo not drawn) [compound 22] | ++ | ++ | +++ | +++ |  | 
12 | CCCCCCCCCCCCCCCCCCOc1ccc(C(=O)C(OCCC(C)c2cccc(C(C)C)c2)OCCC(C)c2cccc(C(C)C)c2)cc1 (stereo not drawn) [compound 23] | 0 | 0 | + | + |  | 
13 | C=CCCCCCCCCCOC(OCCCCCCCCCC=C)C(=O)c1ccc(OCCCCCCCCCCCCCCCCCC)cc1 [compound 24] | ++ | ++ | +++ | +++ |  | 
14 | CC(COC(OCC(C)Cc1ccc(C(C)(C)C)cc1)C(=O)c1ccccc1)Cc1ccc(C(C)(C)C)cc1 (stereo not drawn) [compound 25] | + | + | ++ | ++ | + | ++
15 | CC(C)=CCCC(C)CCOC(OCCC(C)CCC=C(C)C)C(=O)c1ccccc1 (stereo not drawn) [compound 26] | + | + | ++ | ++ | + | ++
16 | C=CCCCCCCCCCOC(OCCCCCCCCCC=C)C(=O)c1ccccc1 [compound 27] | + | + | ++ | ++ | + | ++

Row | Compound | Fragrance Target (perception) Aldehyde/Ketone (III) nat. light | Global appreciation nat. light | Fragrance Target (perception) Aldehyde/Ketone (III) art. light | Global appreciation art. light | Fragrance Target (perception) Aryl ketone (II) nat. light | Fragrance Target (perception) Aryl ketone (II) art. light
17 | CCCCCCOC(OCCCCCC)(C(=O)c1ccccc1)c1ccccc1 [compound 28] | + | + | ++ | ++ |  | 
18 | CCCCCCCCCC(C)COC(OCC(C)CCCCCCCCC)(C(=O)c1ccccc1)c1ccccc1 (stereo not drawn) [compound 29] | ++ | +++ | +++ | +++ |  | 
19 | CC(COC(OCC(C)Cc1ccc(C(C)(C)C)cc1)(C(=O)c1ccccc1)c1ccccc1)Cc1ccc(C(C)(C)C)cc1 (stereo not drawn) [compound 30] | + | + | ++ | ++ |  | 
20 | CSc1ccc(C(=O)C(OCC(C)Cc2ccc(C(C)(C)C)cc2)OCC(C)Cc2ccc(C(C)(C)C)cc2)cc1 (stereo not drawn) [compound 31] | + | + | ++ | ++ |  | 
21 | CCCCCCCCCC(C)COC(OCC(C)CCCCCCCCC)C(=O)c1ccc(SC)cc1 (stereo not drawn) [compound 32] | + | + | +++ | +++ |  | 
22 | CC(COC(OCC(C)Cc1ccc(C(C)(C)C)cc1)C(=O)c1ccc2c(c1)OCO2)Cc1ccc(C(C)(C)C)cc1 (stereo not drawn) [compound 33] | ++ | ++ | +++ | +++ |  | 
23 | CCCCCCCCCC(C)COC(OCC(C)CCCCCCCCC)C(=O)c1ccc2c(c1)OCO2 (stereo not drawn) [compound 34] | +++ | +++ | +++ | +++ |  | 
24 | O=C(c1ccc2c(c1)OCO2)C(OCCc1ccccc1)OCCc1ccccc1 [compound 35] | ++ | + | ++ | ++ |  | 
25 | CC1=CC(C)C(COC(OCC2CCC(C)=CC2C)C(=O)c2ccc3c(c2)OCO3)CC1 (stereo not drawn) [compound 36] | + | + | ++ | ++ |  | 
26 | COc1ccc(C(=O)C(OCC(C)Cc2ccc(C(C)(C)C)cc2)OCC(C)Cc2ccc(C(C)(C)C)cc2)cc1OC (stereo not drawn) [compound 37] | ++ | ++ | +++ | +++ |  | 
27 | CCCCCCCCCC(C)COC(OCC(C)CCCCCCCCC)C(=O)c1ccc(OC)c(OC)c1 (stereo not drawn) [compound 38] | ++ | ++ | +++ | +++ |  | 
28 | COc1ccc(C(=O)C(OCCc2ccccc2)OCCc2ccccc2)cc1OC [compound 39] | + | + | ++ | ++ |  | 
29 | CCN(CC)c1ccc(C(=O)C(OCC(C)Cc2ccc(C(C)(C)C)cc2)OCC(C)Cc2ccc(C(C)(C)C)cc2)cc1 (stereo not drawn) [compound 41] | 0 | 0 | + | + |  | 
30 | CC(COC(OCC(C)Cc1ccc(C(C)(C)C)cc1)C(=O)c1ccc(NC(=O)C(C)(C)C)cc1)Cc1ccc(C(C)(C)C)cc1 (stereo not drawn) [compound 42] |  |  | +++ | +++ |  | 
31 | CCCCCCCCCC(C)COC(OCC(C)CCCCCCCCC)C(=O)c1ccc(NC(=O)C(C)(C)C)cc1 (stereo not drawn) [compound 43] |  |  | +++ | +++ |  | 
